Here are results for 2 molecules from doi:10.1101/2023.08.08.549832.

The target in one experiment is myc-PTCH1 (human). The experiment in a line: co-IP.
For experiment [1], the target named is PTCH1-eGFP (enhanced green fluorescent protein-tagged human PTCH1) (human). The experiment is described as follows: FRET or BRET. (BRET reads energy transfer from a luciferase to a nearby fluorophore.)

Results are given in words; binding and its absence hold for the method and conditions named. In cells and extracts the contact can be indirect. A result given as binding can be weak or reduced; the word gives no strength. Tags and fused reporters may be left off the sequences shown.

B1: PTCH2-FLAG (receptor, UniProt Q9Y6C5 1-1203)
chain: MTRSPPLRELPPSYTPPARTAAPQILAGSLKAPLWLRAYFQGLLFSLGCGIQRHCGKVLFLGLLAFGALALGLRMAIIETNLEQLWVEVGSRVSQELHYTKEKLGEEAAYTSQMLIQTARQEGENILTPEALGLHLQAALTASKVQVSLYGKSWDLNKICYKSGVPLIENGMIERMIEKLFPCVILTPLDCFWEGAKLQGGSAYLPGRPDIQWTNLDPEQLLEELGPFASLEGFRELLDKAQVGQAYVGRPCLHPDDLHCPPSAPNHHSRQAPNVAHELSGGCHGFSHKFMHWQEELLLGGMARDPQGELLRAEALQSTFLLMSPRQLYEHFRGDYQTHDIGWSEEQASTVLQAWQRRFVQLAQEALPENASQQIHAFSSTTLDDILHAFSEVSAARVVGGYLLMLAYACVTMLRWDCAQSQGSVGLAGVLLVALAVASGLGLCALLGITFNAATTQVLPFLALGIGVDDVFLLAHAFTEALPGTPLQERMGECLQRTGTSVVLTSINNMAAFLMAALVPIPALRAFSLQAAIVVGCTFVAVMLVFPAILSLDLRRRHCQRLDVLCCFSSPCSAQVIQILPQELGDGTVPVGIAHLTATVQAFTHCEASSQHVVTILPPQAHLVPPPSDPLGSELFSPGGSTRDLLGQEEETRQKAACKSLPCARWNLAHFARYQFAPLLLQSHAKAIVLVLFGALLGLSLYGATLVQDGLALTDVVPRGTKEHAFLSAQLRYFSLYEVALVTQGGFDYAHSQRALFDLHQRFSSLKAVLPPPATQAPRTWLHYYRNWLQGIQAAFDQDWASGRITRHSYRNGSEDGALAYKLLIQTGDAQEPLDFSQLTTRKLVDREGLIPPELFYMGLTVWVSSDPLGLAASQANFYPPPPEWLHDKYDTTGENLRIPPAQPLEFAQFPFLLRGLQKTADFVEAIEGARAACAEAGQAGVHAYPSGSPFLFWEQYLGLRRCFLLAVCILLVCTFLVCALLLLNPWTAGLIVLVLAMMTVELFGIMGFLGIKLSAIPVVILVASVGIGVEFTVHVALGFLTTQGSRNLRAAHALEHTFAPVTDGAISTLLGLLMLAGSHFDFIVRYFFAALTVLTLLGLLHGLVLLPVLLSILGPPPEVIQMYKESPEILSPPAPQGGGLRWGASSSLPQSFARVTTSMTVAIHPPPLPGAYIHPAPDEPPWSPAATSSGNLSSRGPGPATG
In the case of B1, the binding result (in the experiment with myc-PTCH1 (human); in experiment [1]) was “binds” each time.

B2: PTCH2-mCherry (receptor, UniProt Q9Y6C5 1-1203)
chain: B1 chain
B2: the binding result in experiment [1] was “binds”.
